Results published in PMC10199079, “ERK and USP5 govern PD-1 homeostasis via deubiquitination to modulate tumor immunotherapy” (Nature Communications, 2023).
Like-named read-outs stand apart in the source and are kept apart here. No constants are given. Whether binding was seen depends on the method and setting. Binding seen in cells or lysates may run through a third protein. A yes stands for co-enrichment or nearness to the bait. Other partners may have been found.

Sequences of proteins named here, by UniProt entry; tags and fusion partners are left off. Residues count along the entry.
UniProt Q15116, residues 25-288: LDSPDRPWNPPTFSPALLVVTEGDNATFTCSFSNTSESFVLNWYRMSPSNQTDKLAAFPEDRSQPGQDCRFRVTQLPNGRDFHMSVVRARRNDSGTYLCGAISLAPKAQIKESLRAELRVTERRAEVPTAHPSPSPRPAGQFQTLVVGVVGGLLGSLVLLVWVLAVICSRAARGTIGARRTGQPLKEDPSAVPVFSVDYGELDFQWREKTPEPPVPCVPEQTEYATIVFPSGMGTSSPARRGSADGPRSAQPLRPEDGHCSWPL
UniProt P45974: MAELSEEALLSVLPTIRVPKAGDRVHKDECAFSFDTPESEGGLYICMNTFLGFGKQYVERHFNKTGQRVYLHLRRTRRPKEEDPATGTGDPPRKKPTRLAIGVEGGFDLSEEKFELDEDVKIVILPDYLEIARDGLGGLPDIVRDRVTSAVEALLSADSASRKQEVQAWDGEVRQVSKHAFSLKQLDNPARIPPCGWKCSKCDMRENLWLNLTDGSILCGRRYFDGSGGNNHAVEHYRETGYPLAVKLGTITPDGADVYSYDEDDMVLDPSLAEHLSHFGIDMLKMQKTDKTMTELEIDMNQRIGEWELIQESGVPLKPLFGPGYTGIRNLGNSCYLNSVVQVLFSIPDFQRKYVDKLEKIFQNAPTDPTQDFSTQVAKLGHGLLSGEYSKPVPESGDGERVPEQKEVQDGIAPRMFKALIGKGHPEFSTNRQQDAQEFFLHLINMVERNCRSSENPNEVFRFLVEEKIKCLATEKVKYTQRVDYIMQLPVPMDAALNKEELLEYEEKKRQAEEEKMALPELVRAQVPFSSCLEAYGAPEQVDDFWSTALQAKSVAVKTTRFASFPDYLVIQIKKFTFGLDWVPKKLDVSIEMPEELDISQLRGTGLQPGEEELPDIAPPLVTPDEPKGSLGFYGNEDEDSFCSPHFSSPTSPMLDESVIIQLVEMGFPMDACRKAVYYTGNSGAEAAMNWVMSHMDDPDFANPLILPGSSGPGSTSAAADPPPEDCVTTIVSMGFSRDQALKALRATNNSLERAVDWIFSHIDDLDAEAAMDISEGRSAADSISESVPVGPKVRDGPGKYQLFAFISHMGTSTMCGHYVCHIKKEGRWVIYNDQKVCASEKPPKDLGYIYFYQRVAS
UniProt Q8TD19: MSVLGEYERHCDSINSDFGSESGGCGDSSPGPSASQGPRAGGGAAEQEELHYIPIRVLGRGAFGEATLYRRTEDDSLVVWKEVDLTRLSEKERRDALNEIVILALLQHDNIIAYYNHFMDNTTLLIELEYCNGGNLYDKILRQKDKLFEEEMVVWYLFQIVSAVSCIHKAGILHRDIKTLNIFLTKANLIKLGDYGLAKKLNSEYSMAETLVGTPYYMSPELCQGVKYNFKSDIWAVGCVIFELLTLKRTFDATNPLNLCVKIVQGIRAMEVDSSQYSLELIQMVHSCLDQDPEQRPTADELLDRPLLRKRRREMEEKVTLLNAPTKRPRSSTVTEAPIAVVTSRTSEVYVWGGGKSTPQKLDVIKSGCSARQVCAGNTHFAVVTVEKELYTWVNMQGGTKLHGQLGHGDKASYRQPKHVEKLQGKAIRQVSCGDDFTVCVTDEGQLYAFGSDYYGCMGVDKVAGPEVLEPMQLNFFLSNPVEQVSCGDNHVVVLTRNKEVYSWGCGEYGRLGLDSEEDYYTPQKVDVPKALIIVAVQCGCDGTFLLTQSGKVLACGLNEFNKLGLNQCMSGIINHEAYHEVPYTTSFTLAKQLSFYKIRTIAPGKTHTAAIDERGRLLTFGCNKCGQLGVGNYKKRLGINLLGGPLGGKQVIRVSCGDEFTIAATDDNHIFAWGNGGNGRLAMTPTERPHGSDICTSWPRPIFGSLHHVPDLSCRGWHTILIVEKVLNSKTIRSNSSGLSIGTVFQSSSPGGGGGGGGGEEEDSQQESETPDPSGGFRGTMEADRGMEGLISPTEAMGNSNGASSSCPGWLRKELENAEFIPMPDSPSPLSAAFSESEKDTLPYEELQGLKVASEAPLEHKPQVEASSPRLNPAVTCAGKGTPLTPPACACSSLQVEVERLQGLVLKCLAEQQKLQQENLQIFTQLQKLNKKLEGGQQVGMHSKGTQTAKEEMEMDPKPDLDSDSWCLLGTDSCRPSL

B1: KLHL22 (protein, UniProt Q53GT1 1-634)
chain: MAEEQEFTQLCKLPAQPSHPHCVNNTYRSAQHSQALLRGLLALRDSGILFDVVLVVEGRHIEAHRILLAASCDYFRGMFAGGLKEMEQEEVLIHGVSYNAMCQILHFIYTSELELSLSNVQETLVAACQLQIPEIIHFCCDFLMSWVDEENILDVYRLAELFDLSRLTEQLDTYILKNFVAFSRTDKYRQLPLEKVYSLLSSNRLEVSCETEVYEGALLYHYSLEQVQADQISLHEPPKLLETVRFPLMEAEVLQRLHDKLDPSPLRDTVASALMYHRNESLQPSLQSPQTELRSDFQCVVGFGGIHSTPSTVLSDQAKYLNPLLGEWKHFTASLAPRMSNQGIAVLNNFVYLIGGDNNVQGFRAESRCWRYDPRHNRWFQIQSLQQEHADLSVCVVGRYIYAVAGRDYHNDLNAVERYDPATNSWAYVAPLKREVYAHAGATLEGKMYITCGRRGEDYLKETHCYDPGSNTWHTLADGPVRRAWHGMATLLNKLYVIGGSNNDAGYRRDVHQVACYSCTSGQWSSVCPLPAGHGEPGIAVLDNRIYVLGGRSHNRGSRTGYVHIYDVEKDCWEEGPQLDNSISGLAACVLTLPRSLLLEPPRGTPDRSQADPDFASEVMSVSDWEEFDNSSED
B2: USP15, endogenous (enzyme, UniProt Q9Y4E8 1-981)
chain: MAEGGAADLDTQRSDIATLLKTSLRKGDTWYLVDSRWFKQWKKYVGFDSWDKYQMGDQNVYPGPIDNSGLLKDGDAQSLKEHLIDELDYILLPTEGWNKLVSWYTLMEGQEPIARKVVEQGMFVKHCKVEVYLTELKLCENGNMNNVVTRRFSKADTIDTIEKEIRKIFSIPDEKETRLWNKYMSNTFEPLNKPDSTIQDAGLYQGQVLVIEQKNEDGTWPRGPSTPKSPGASNFSTLPKISPSSLSNNYNNMNNRNVKNSNYCLPSYTAYKNYDYSEPGRNNEQPGLCGLSNLGNTCFMNSAIQCLSNTPPLTEYFLNDKYQEELNFDNPLGMRGEIAKSYAELIKQMWSGKFSYVTPRAFKTQVGRFAPQFSGYQQQDCQELLAFLLDGLHEDLNRIRKKPYIQLKDADGRPDKVVAEEAWENHLKRNDSIIVDIFHGLFKSTLVCPECAKISVTFDPFCYLTLPLPMKKERTLEVYLVRMDPLTKPMQYKVVVPKIGNILDLCTALSALSGIPADKMIVTDIYNHRFHRIFAMDENLSSIMERDDIYVFEININRTEDTEHVIIPVCLREKFRHSSYTHHTGSSLFGQPFLMAVPRNNTEDKLYNLLLLRMCRYVKISTETEETEGSLHCCKDQNINGNGPNGIHEEGSPSEMETDEPDDESSQDQELPSENENSQSEDSVGGDNDSENGLCTEDTCKGQLTGHKKRLFTFQFNNLGNTDINYIKDDTRHIRFDDRQLRLDERSFLALDWDPDLKKRYFDENAAEDFEKHESVEYKPPKKPFVKLKDCIELFTTKEKLGAEDPWYCPNCKEHQQATKKLDLWSLPPVLVVHLKRFSYSRYMRDKLDTLVDFPINDLDMSEFLINPNAGPCRYNLIAVSNHYGGMGGGHYTAFAKNKDDGKWYYFDDSSVSTASEDQIVSKAAYVLFYQRQDTFSGTGFFPLDRETKGASAATGIPLESDEDSNDNDNDIENENCMHTN
B3: HK2 (enzyme, UniProt P52789 1-917)
chain: MIASHLLAYFFTELNHDQVQKVDQYLYHMRLSDETLLEISKRFRKEMEKGLGATTHPTAAVKMLPTFVRSTPDGTEHGEFLALDLGGTNFRVLWVKVTDNGLQKVEMENQIYAIPEDIMRGSGTQLFDHIAECLANFMDKLQIKDKKLPLGFTFSFPCHQTKLDESFLVSWTKGFKSSGVEGRDVVALIRKAIQRRGDFDIDIVAVVNDTVGTMMTCGYDDHNCEIGLIVGTGSNACYMEEMRHIDMVEGDEGRMCINMEWGAFGDDGSLNDIRTEFDQEIDMGSLNPGKQLFEKMISGMYMGELVRLILVKMAKEELLFGGKLSPELLNTGRFETKDISDIEGEKDGIRKAREVLMRLGLDPTQEDCVATHRICQIVSTRSASLCAATLAAVLQRIKENKGEERLRSTIGVDGSVYKKHPHFAKRLHKTVRRLVPGCDVRFLRSEDGSGKGAAMVTAVAYRLADQHRARQKTLEHLQLSHDQLLEVKRRMKVEMERGLSKETHASAPVKMLPTYVCATPDGTEKGDFLALDLGGTNFRVLLVRVRNGKWGGVEMHNKIYAIPQEVMHGTGDELFDHIVQCIADFLEYMGMKGVSLPLGFTFSFPCQQNSLDESILLKWTKGFKASGCEGEDVVTLLKEAIHRREEFDLDVVAVVNDTVGTMMTCGFEDPHCEVGLIVGTGSNACYMEEMRNVELVEGEEGRMCVNMEWGAFGDNGCLDDFRTEFDVAVDELSLNPGKQRFEKMISGMYLGEIVRNILIDFTKRGLLFRGRISERLKTRGIFETKFLSQIESDCLALLQVRAILQHLGLESTCDDSIIVKEVCTVVARRAAQLCGAGMAAVVDRIRENRGLDALKVTVGVDGTLYKLHPHFAKVMHETVKDLAPKCDVSFLQSEDGSGKGAALITAVACRIREAGQR

Columns and labels:
PD-1-cHA (human) [1] = molecular target: PD-1-cHA (human) (UniProt Q15116); assay: affinity purification with mass spectrometry; anti-HA-agarose IP from lysates of HEK293T cells transfected with pcDNA3.1-PD-1-cHA or empty vector; EBC buffer (50 mM Tris pH 7.5, 0.5% NP40, 120 mM NaCl), 4 h at 4 °C, washed five times with NETN buffer
PD-1-cHA (human) [2] = molecular target: PD-1-cHA (human) (UniProt Q15116); assay: as above; remark: listed apart in the source

| Molecule | binding (PD-1-cHA (human) [1]) | binding (PD-1-cHA (human) [2]) |
| --- | --- | --- |
| ubiquitin-specific protease 5 (USP5), endogenous (from UniProt P45974 1-858) (enzyme) | binds |  |
| NEK9 (from UniProt Q8TD19 1-979) (enzyme) | binds |  |
| B1 |  | binds |
| B2 |  | binds |
| B3 |  | binds |
